# Results of single-concentration screens

T. brucei: 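Whole-parasite assay of Trypanosoma brucei over 72 hours; the read-out is not stated. Concentration: 30 µM. Higher reads as stronger inhibition (inferred: compounds with an IC50 in retests scored well above the rest). Values scatter widely below zero; nearly all retest evidence comes from the higher of the two concentrations used. About 64,000 compounds were tested under these conditions; 1.5% (about 940) showed 50% or more at least once.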
Toxoplasma: 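Assay of Toxoplasma gondii numbers, read through their beta-galactosidase reporter with a colour substrate. Compounds at 10 µM. Higher reads as fewer parasites (inferred from which compounds were picked for retests). Size under these conditions: about 67,000 compounds, about 260 of them at 50% or above in at least one test.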

Each number is a percent effect as filed. How 0% and 100% were set is not recorded. Most values in the screen are low, and negative values occur. Compounds were drawn at random from those tested, without regard to their results. A dash means the value is not listed here; it may have been measured.

compound,T. brucei,Toxoplasma
COc1cccc(CCNCc2c(C)nn(C)c2N(C)C)c1,-21.14,-6.775
Cc1nnc(C(C)NCC2(c3ccc(Cl)cc3)CCCC2)o1 (configuration not stated),-10.5,-2.885
COc1cc(C)sc1C(=O)N1CCC(Nc2cccnc2)CC1,-12.92,11.95
Cc1ccc(C(=O)NCc2cccnc2-n2cncn2)cc1S(C)(=O)=O,-36.39,22.56
Cc1ccc(C2CSCCN2C(=O)c2cc(C(N)=O)cs2)o1 (configuration not stated),-16.27,8.773
CCOc1ccc(S(=O)(=O)NCCCc2ccc(N(C)C)cc2)cc1C,24.19,-1.03
CCc1nc(CN(C)C(=O)NCc2cccc(NC(C)=O)c2)cs1,-8.027,2.537
FC1(F)CCNCC12CCN(c1ccccn1)C2 (configuration not stated),-,4.241
Cc1cc(C[C@@H]2COC[C@@H]2NC(=O)CN2CCOC2=O)on1,4.636,3.516
Cc1ccc(S(=O)(=O)NCc2[nH]ncc2Br)cc1F,-58.74,8.587
O=C(c1cccnc1)N1CCN(c2ccnc3ccsc23)CC1,-48.66,-8.575
Cc1cc(C(F)(F)F)nc(CNC(=O)C2CCCCCN2C)n1 (configuration not stated),-50,-8.011
Cn1ncc(C(=O)O)c1C(=O)Nc1nc2ccc(Br)cc2s1,-48.58,23.46
COCCC1(C(=O)NCCc2nncn2C2CC2)CCC1,-44.5,1.326
Cc1ccc(N2N=C(C(=O)O)S(=O)(=O)c3cccnc32)cc1,-2.762,-
CCc1nnsc1C(=O)N1CCCN(Cc2ccc(F)cc2)CC1,1.283,4.285
[H][C@]12CC[C@]([H])(CN(Cc3ccccn3)C1)N(C(=O)c1cc(C)nc(C)n1)C2,26.04,-4.446
O=C(N1CCC(O)(C(F)(F)F)C1)C1(c2ccc(Cl)cc2)CC1 (configuration not stated),-2.131,0.2674
CCc1ccc2c(C3CN(C(C)=O)C3)ncn2c1,-63.91,7.386
O=C(NCc1nnc2n1CCC2)N1CCC2(CCCCC2)CC1,-3.097,4.645
NC(=O)c1cc(C2CCCN(C(=O)CCc3ccncc3)C2)n[nH]1 (configuration not stated),-,-28.45
Cc1nn(C)c(N(C)C)c1CNCc1cccc(Cl)c1,-2.455,2.725
Cc1nc(C)n(CC(C)C(=O)N2CCCN(C3CCCC3)CC2)n1 (configuration not stated),-5.627,6.561
CC(NC(=O)NCc1ccccn1)c1cccs1 (configuration not stated),-48.74,-5.912
C=C(C)COc1ccccc1C(=O)NCCCc1nnn[nH]1,-5.36,-5.401
CNC(=O)C1CC(=O)N(c2cccc(F)c2)C1 (configuration not stated),7.963,-3.977
Cc1cnc(CN2CCN(c3ccnc(-c4ccccc4)n3)CC2)cn1,33.29,4.806
O=c1c(-c2ccnc(N3CCC[C@H]3CO)n2)cnc2sccn12,7.15,-0.9072
COc1cc(CNC(=O)Nc2nnc(C(C)C)s2)ccc1O,-2.153,6.404
COC(=O)c1cccc(C(=O)N(C)Cc2cccc(F)c2)c1,-29,17.58
Cc1nccn1CCC1CCN(C2CCC3(CCNCC3)CC2)CC1,-17.19,22.3
CS(=O)(=O)N[C@@H]1CCO[C@]2(CCN(CC3CCOCC3)C2)C1.O=C(O)C(F)(F)F,-28.33,-5.552
CN(C)c1nc(CNC(=O)NC2COc3ccccc32)cs1 (configuration not stated),4.805,-21.39
CC(NCc1nnc2n1CCCC2)C(=O)N1CCc2sccc2C1 (configuration not stated),-,9.649
CNC(=O)C1CCC(NC(=O)c2cc(C3CC3)n(C(C)(C)C)n2)CC1 (configuration not stated),-46.19,6.476
COc1ccc(CN2CCC[C@H]2c2nc(-c3cncnc3N)no2)cc1,-48.86,-4.256
O=C(Cn1cc(I)cn1)Nc1cccnc1,15,2.464
COc1ccc(-n2cccn2)c(CN2CCOCC(CN(C)C)C2)c1 (configuration not stated),-17.56,-41.79
CCc1nc(C)c(CC(=O)N2CCC3(CC2)OCCCC3O)c(=O)[nH]1 (configuration not stated),-25.05,-3.147
O=C1CC(c2ccc(O)cc2)c2c(c(C(=O)O)cn2-c2ccccc2)N1 (configuration not stated),-5.69,1.213
CN(C)c1cc(CNC(=O)c2cn(-c3ccc(F)cc3)nn2)ccn1,-8.87,-1.477
Cc1cc(NCC2CCCO2)cc(=O)n1C (configuration not stated),-18.83,23.17
Cc1ncsc1-c1nc(-c2cccc(CN3CCOCC3)c2)no1,-30.68,10.38
CN1CCCCC1c1ncc2c(n1)CCN(Cc1ccccc1Cl)C2 (configuration not stated),-6.551,-1.719
CCCc1nc(N2CCCC(CCOC)C2)c2cnn(C)c2n1 (configuration not stated),-45.64,33.72
O=C(O)C(F)(F)F.[H][C@@]12CCCO[C@]1([H])[C@H](NC(=O)c1cnn(C)c1)CN2Cc1cccs1,1.332,-2.35
Cc1cccc(COc2ccccc2C(=O)N2CCC(C(N)=O)CC2)c1,-24.52,-14.69
O=c1ccc2c([nH]1)CCN(S(=O)(=O)c1ccc3c(c1)OCCO3)C2,4.663,0.9009
Cc1n[nH]c(C)c1CC(=O)N1CC[C@@](C)(O)[C@@H](Cc2ccccc2)C1,-11.14,-7.076
O=C(c1cccc2c1OCO2)N1CCCC1Cn1cccn1 (configuration not stated),-16.02,-11.05
COC(=O)c1ccc(C2SCC(=O)Nc3c2cnn3C(C)(C)C)cc1 (configuration not stated),-13.98,1.762
Cc1nc(CN(C)c2nc3c(cnn3C(C)(C)C)c(=O)[nH]2)cs1,-57.37,2.401
N#CCCCN1CCCC1Cc1ccccc1 (configuration not stated),-,0.8506
O=C(c1cnccn1)N1CCCC(Cc2cncc3ccccc23)C1 (configuration not stated),15.31,2.387
Cc1ccc(CN(CCN(C)C)Cc2ccnn2C2CCCCO2)o1.O=C(O)CC(O)(CC(=O)O)C(=O)O (configuration not stated),-3.917,0.5634
CNS(=O)(=O)c1cccc(C(C)NCc2ccccc2)c1 (configuration not stated),-52.82,5.007
CSc1ccsc1C(=O)NS(=O)(=O)c1ccc(F)cc1,-37.65,9.592
Cc1cccnc1CN(C)C(C(=O)O)c1ccc(C(C)(C)C#N)cc1 (configuration not stated),18.08,-21.29
c1cnc(C2CCCN(Cc3ccsc3)C2)cn1 (configuration not stated),-9.236,-3.166
CC(C)c1n[nH]c(C2CN(C(=O)CCCn3cccn3)CCO2)n1 (configuration not stated),-26.77,-0.756

The values are deposited in ChEMBL (CHEMBL3988442, “University of Dundee, Small-Polar-MMV Screening Library” (2021)).